{"source": "patent US9096835B2", "about": "“DNA polymerase” (Medical Research Council, priority 2003, dated 2015)", "tested_on": "PCR fragments of the cloned Taq gene", "assay": "mutS ELISA fidelity assay", "format": "biochemical", "conditions": "MutS assay and sequencing of PCR amplification products", "note": "Where “and” joins values, the source holds several entries; their conditions need not be identical. Identical values can stand only once."}
{"molecule": "M1: Taq mutant G84A, D144G, K314R, E520G, F598L, A608V, E742G; SEQ ID NO: 1 (protein, Mutant Thermus aquaticus DNA polymerase) MRGMLPLFEPKGRVLLVDGHHLAYRTFHALKGLTTSRGEPVQAVYGFAKSLLKALKEDGDAVIVVFDAKAPSFRHEAYGGYKAARAPTPEDFPRQLALIKELVDLLGLARLEVPGYEADDVLASLAKKAEKEGYEVRILTADKGLYQLLSDRIHVLHPEGYLITPAWLWEKYGLRPDQWADYRALTGDESDNLPGVKGIGEKTARKLLEEWGSLEALLKNLDRLKPAIREKILAHMDDLKLSWDLAKVRTDLPLEVDFAKRREPDRERLRAFLERLEFGSLLHEFGLLESPKALEEAPWPPPEGAFVGFVLSRREPMWADLLALAAAAGGRVHRAPEPYKALRDLKEARGLLAKDLSVLALREGLGLPPGDDPMLLAYLLDPSNTTPEGVARRYGGEWTEEAGERAALSERLFANLWGRLEGEERLLWLYREVERPLSAVLAHMEATGVRLDVAYLRALSLEVAEEIARLEAEVFRLAGHPFNLNSRDQLERVLFDELGLPAIGKTEKTGKRSTSAAVLGALREAHPIVEKILQYRELTKLKSTYIDPLPDLIHPRTGRLHTRFNQTATATGRLSSSDPNLQNIPVRTPLGQRIRRAFIAEEGWLLVVLDYSQIELRVLAHLSGDENLIRVFQEGRDIHTETASWMFGVPREAVDPLMRRAAKTINFGVLYGMSAHRLSQELAIPYEEAQAFIERYFQSFPKVRAWIEKTLEEGRRRGYVETLFGRRRYVPDLEARVKSVRGAAERMAFNMPVQGTAADLMKLAMVKLFPRLEEMGARMLLQVHDELVLEAPKERAEAVARLAKEVMEGVYPLAVPLEVEVGIGEDWLSAKE", "values": [{"measurement": "increase in the overall mutation rate compared to wtTaq", "result": "< 2 fold and 1.6 fold"}]}
{"molecule": "M4: Taq mutant D58G, R74P, A109T, L245R, R343G, G370D, E520G, N583S, E694K, A743P; SEQ ID NO 2 (protein, Mutant Thermus aquaticus DNA polymerase) MRGMLPLYEPKGRVLLVDGHHLAYRTFHALKGLTTSRGEPVQAVYGFAKSLLKALKEGGDAVIVVFDAKAPSFPHEAYGGYKAGRAPTPEDFPRQLALIKELVDLLGLTRLEVPGYEADDVLASLAKKAEKEGYEVRILTADKDLYQLLSDRIHVLHPEGYLITPAWLWEKYGLRPDQWADYRALTGDESDNLPGVKGIGEKTARKLLEEWGSLEALLKNLDRLKPAIREKILAHMDDLKLSWDRAKVRTDLPLEVDFAKRREPDRERLRAFLERLEFGSLLHEFGLLESPKALEEAPWPPPEGAFVGFVLSRKEPMWADLLALAAARGGRVHRAPEPYKALGDLKEARGLLAKDLSVLALREGLGLPPDDDPMLLAYLLDPSNTTPEGVARRYGGEWTEEAGERAALSERLFANLWGRLEGEERLLWLYREVERPLSAVLAHMEATGVRLDVAYLRALSLEVAEEIARLEAEVFRLAGHPFNLNSRDQLERVLFDELGLPAIGKTEKTGKRSTSAAVLGALREAHPIVEKILQYRELTKLKSTYIDPLPDLIHPRTGRLHTRFNQTATATGRLSSSDPNLQSIPVRTPLGQRIRRAFIAEEGWLLVALDYSQIELRVLAHLSGDENLIRVFQEGRDIHTETASWMFGVPREAVDPLMRRAAKTINFGVLYGMSAHRLSQELAIPYEEAQAFIKRYFQSFPKVRAWIEKTLEEGRRRGYVETLFGRRRYVPDLEARVKSVREPAERMAFNMPVQGTAADLMKLAMVKLFPRLEEMGARMLLQVHDELVLEAPKERAEAVARLAKEVMEGVYPLAVPLEVEVGIGEDWLSAKE", "values": [{"measurement": "increase in the overall mutation rate compared to wtTaq", "result": 1.6, "unit": "fold"}]}
